From publication PMC5983586
These are yes or no findings as the source states them, for the method shown. Binding seen in cells or lysates may run through a third protein. Some binding calls cover weakened binding; strength is not graded here. Sequences can lack the tags named with a protein.

Tests used:
[1] = target: Bovine PLIN2 BiFC fusion (PLIN2-VN173 or PLIN2-VC155) (bovine) (UniProt Q9TUM6); assay: split reporter; BiFC-FC: Venus fluorescence of co-transfected bovine adipocytes read by flow cytometry 24 h after transfection (excitation 488 nm, FL1 530 nm, 8 x 10^4 cells per sample)
[2] = target: Bovine PLIN2 BiFC fusion (PLIN2-VN173 or PLIN2-VC155) (bovine) (UniProt Q9TUM6); assay: split reporter; BiFC (Venus VN173 + VC155) in transfected bovine adipocytes; fluorescence microscopy 24 h after transfection

binding [1]: binds | binding [2]: binds weakly
B1: Bovine PLIN2 BiFC fusion (PLIN2-VN173 or PLIN2-VC155) (protein, UniProt Q9TUM6-1 1-450)
chain: MASVAVEPQLSVVTRVANLPLVSSTYDLVSSAYISRKDQYPYLKSLCEMAEKGMKTITSVAVTSALPIIQKLEPQIAVANTYACKGLDRIEEKLPILNQPTNQVVANAKGAMTGAKDAVTTTVTGAKDSVASTITGVVDRTKGAVTGSVEKTKSVVSGSINTVLRSRVMQLMSSGVENALTKSELLVDQYLPLTKDELEKEAKKVEGFDMVQKPSYYVRLGSLSTKLRSRAYQQALCRVEEAKRKGQETISQLHSAFNLSELARKNVHNANQKIQDAQDKLYLSWLEWKRSIGYDDTDESHCAEHIESRTLAIARNLTQQLQTMCHTLLSNIQGLPQNIQDRANHLGVMAGDIYSVFRNAASFKEVSDGLLASSKGQLQKMKESLDDVMDYLVNNTPLNWLVGPFYPQVTESESAQAPGTTRRPGRWSRKHPKPVPVSNAEGSQPDDSSS
